Test [1] has as its target ATZ-Venus (alpha-1-antitrypsin Z mutant with C-terminal Venus) (UniProt P01009). Put plainly: co-IP; GFP-tag (Venus, Cerulean, YFP) pull-down with the μMACS GFP Isolation Kit from N2a cells 48 h after transient transfection; lysis, incubation and washes in 1% CHAPS, 50 mM HEPES pH 7.4, 100 mM NaCl, 2 mM CaCl2 at 4°C; eluates immunoblotted; untransfected parental cells as control; Figure 3C is a single experiment (n = 1).

Chains of the proteins cited; added tags and fusions are not shown. Lines headed by an entry give the natural chain unless they say otherwise; changes in a name come on top. A line that says so, or that is headed by a name, gives the form on record, which may keep a tag or linker. Residues count along the entry.
ATZ-Venus (alpha-1-antitrypsin Z mutant with C-terminal Venus) (P01009, form named): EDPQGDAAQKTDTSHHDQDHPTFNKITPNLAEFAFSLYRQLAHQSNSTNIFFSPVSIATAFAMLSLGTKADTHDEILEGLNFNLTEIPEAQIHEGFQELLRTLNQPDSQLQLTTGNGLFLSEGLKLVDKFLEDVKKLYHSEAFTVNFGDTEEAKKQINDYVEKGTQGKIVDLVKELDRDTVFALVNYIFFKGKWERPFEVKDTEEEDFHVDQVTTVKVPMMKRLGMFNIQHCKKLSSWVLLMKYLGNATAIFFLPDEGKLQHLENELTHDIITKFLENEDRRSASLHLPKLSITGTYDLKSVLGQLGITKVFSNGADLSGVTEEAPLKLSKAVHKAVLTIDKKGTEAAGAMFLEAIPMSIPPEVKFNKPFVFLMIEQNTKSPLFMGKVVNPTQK
UniProt Q15363, residues 21-201: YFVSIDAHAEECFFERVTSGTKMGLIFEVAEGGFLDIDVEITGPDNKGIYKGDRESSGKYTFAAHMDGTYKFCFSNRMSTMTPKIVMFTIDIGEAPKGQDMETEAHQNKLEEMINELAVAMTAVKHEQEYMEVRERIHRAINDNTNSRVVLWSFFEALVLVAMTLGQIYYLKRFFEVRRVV

Test [2] addresses T1, CER-TMED9 (SS(lactase)-CER-TMED9) (human) (UniProt Q9BVK6).
T1 sequence: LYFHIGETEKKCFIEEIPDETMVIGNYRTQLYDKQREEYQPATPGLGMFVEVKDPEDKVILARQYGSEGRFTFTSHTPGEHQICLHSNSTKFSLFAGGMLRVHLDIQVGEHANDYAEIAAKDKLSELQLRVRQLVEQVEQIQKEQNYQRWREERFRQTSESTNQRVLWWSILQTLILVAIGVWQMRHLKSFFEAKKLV
The description is as above.

The target in test [3] is T2, CER-TMP21 (SS(TMP21)-CER-TMP21) (rat) (UniProt Q63584).
T2 sequence: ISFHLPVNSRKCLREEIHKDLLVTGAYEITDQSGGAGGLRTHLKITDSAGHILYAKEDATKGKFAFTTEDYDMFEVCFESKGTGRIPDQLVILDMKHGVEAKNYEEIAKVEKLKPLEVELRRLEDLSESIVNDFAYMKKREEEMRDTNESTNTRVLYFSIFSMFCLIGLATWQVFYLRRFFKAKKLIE
The test is described as above.

Test [4] addresses CER-p24 (UniProt Q15363). The description is as above.
Test [5] deals with ATZ-Venus (alpha-1-antitrypsin Z mutant with C-terminal Venus) (UniProt P01009). Put plainly: co-IP.

These are yes or no findings as the source states them, for the method shown. Binding seen in cells or lysates may run through a third protein. Some results given as binding are weak or reduced against the parent protein; the word gives no strength.

B1: TMED9 (protein, UniProt Q99KF1 38-235)
chain: T1 sequence
On to B1, for which the binding entry in test [1] is “binds”.

B2: SEC24C (protein, UniProt G3X972 1-1096)
chain: MNVNQSAPPVPPYGQNQPIYPGYHQSSYGGQPGPAAPATPYGAYNGPVPGYQQAPPQGVPRAPPSSGAPPASAAQVPCGQTTYGQFGQGDIQNGPSSTAQMQRVPGSQQFGPPLAPVVSQPAVLQPYGPPPTSTQVTAQLAGMQISGAVAQAPPPSGLGYGPPTSLASASGNFPNSGPYGSYPQSQAPPLSQAQGHPGVQPPLRSAPPLASSFTSPASGGPQMPSMTGLLPPGQGFGSLPVNQANHVSSPPAPALPPGTQMTGPPVPPPPPMHSPQQPGYQLQQNGSFGPARGPQPNYESPYPGAPTFGSQPGPPQPLPPKRLDPDAIPSPIQVIEDDRNNRGSEPFVTGVRGQVPPLVTTNFLVKDQGNASPRYIRCTSYNIPCTSDMAKQAQVPLAAVIKPLARLPPEEASPYVVDHGESGPLRCNRCKAYMCPLMTFIEGGRRFQCSFCSCVNDVPPQYFQHLDHTGKRVDAYDRPELSLGSYEFLATVDYCKNNKFPSPPAFIFMIDVSYNAIRTGLVRLLCEELKSLLDYLPREGGAEESAIRVGFVTYNKVLHFYNVKSSLAQPQMMVVSDVADMFVPLLDGFLVNVSESRAVITSLLDQIPEMFADTRETETVFAPVIQAGMEALKAAECAGKLFLFHTSLPIAEAPGKLKNRDDRKLINTDKEKTLFQPQTGTYQTLAKECVAQGCCVDLFLFPNQYVDVATLSVVPQLTGGSVYKYACFQVENDQERFLSDLRRDVQKVVGFDAVMRVRTSTGIRAVDFFGAFYMSNTTDVELAGLDGDKTVTVEFKHDDRLNEENGALLQCALLYTSCAGQRRLRIHNLALNCCTQLADLYRNCETDTLINYMAKFAYRAVLNSPVKTVRDTLITQCAQILACYRKNCASPSSAGQLILPECMKLLPVYLNCVLKSDVLQPGAEVTTDDRAYVRQLVSSMDVAETNVFFYPRLLPLTKSPLDSTAEPPAVRASEERLSSGDIYLLENGLNLFVWVGASVQQGVVQSLFNVSSFSQITSGLSVLPVLDNPLSKKVRGLIDSLRAQRMRYMKLIVVKQEDKLEMLFKHFLVEDKSLSGGASYVDFLCHMHKEIRQLLS
As to B2, the binding entry in test [2], in test [3] and in test [4] was “binds” throughout.

B3: TMP21 (protein, UniProt Q9D1D4 32-219)
chain: T2 sequence
Consider B3, for which the binding result in test [5] is “binds”.

B4: FAM134B (protein, UniProt Q8VE91 1-480)
chain: MASPAPEEHATQGCPATEEQPPRPGVPGEEAGPEGAGPQVEEAAGRVAAALTWLLGEPVLWLGWRADELLSWKRPLRSLLTFLGANLLFWFLALTPWRVYHLISVMILGRVIMQIIKEMVLSRTRGAQLWRSLTESWEVINSKPDERARLSQCIAESWMNFSMFLQEMSLFKQQSPGKFCLLVCSVCTFFTILGSYIPGVILSYLLLLFAFLCPLFKCNDIGQKIYSKVKSILLKLDFGIGEYINQKKRERSEADKEKSHKDDSELDFSALCPKISLTVAAKELSVSDTDVSEVSWTDNGTFNLSEGYTPQTDTSDDLDRPSEEVFSRDLSDFPSLENGTGTNDEDELSLGLPTELKRKKQQLDSAHRPSKERQSAAGLSLPLKSDQALHLMSNLAGDVITAAMTAAIKDQLEGARQALTQVAPTAGEDTDTEEGDDFELLDQAELDQIESELGLTQDQGAEAQQSKKSSGFLSNLLGGH
Turning to B4, the binding entry in test [1], in test [2], in test [3] and in test [4] was “binds” throughout.

B5: calnexin (protein, UniProt P35564 21-591)
chain: HDGHDDDAIDIEDDLDDVIEEVEDSKSKSDASTPPSPKVTYKAPVPTGEVYFADSFDRGSLSGWILSKAKKDDTDDEIAKYDGKWEVDEMKETKLPGDKGLVLMSRAKHHAISAKLNKPFLFDTKPLIVQYEVNFQNGIECGGAYVKLLSKTAELSLDQFHDKTPYTIMFGPDKCGEDYKLHFIFRHKNPKTGVYEEKHAKRPDADLKTYFTDKKTHLYTLILNPDNSFEILVDQSVVNSGNLLNDMTPPVNPSREIEDPEDRKPEDWDERPKIADPDAVKPDDWDEDAPSKIPDEEATKPEGWLDDEPEYIPDPDAEKPEDWDEDMDGEWEAPQIANPKCESAPGCGVWQRPMIDNPNYKGKWKPPMIDNPNYQGIWKPRKIPNPDFFEDLEPFKMTPFSAIGLELWSMTSDIFFDNFIISGDRRVVDDWANDGWGLKKAADGAAEPGVVLQMLEAAEERPWLWVVYILTVALPVFLVILFCCSGKKQSNAMEYKKTDAPQPDVKDEEGKEEEKNKRDEEEEEEKLEEKQKSDAEEDGVTGSQDEEDSKPKAEEDEILNRSPRNRKPRRE
Take B5: in test [1], the binding result is recorded as “binds”.

The record behind these values is article PMC10916869.
